Source: PubChem BioAssay AID1259424 (University of Nebraska Medical Center, 2018)

Assay: 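Seek colon cancer survival genes behaving like KSR1, using a six-gene signature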 (primary screen)
Cell system: human HCT116 colon cancer cells
Reagent: siRNA pool against human genes, 50 nM
Read-out: 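Log2 levels of six mRNAs (branched-DNA multiplex), adjusted by two reference genes and the non-targeting median, then scored against the average KSR1 knockdown pattern as Pearson r and euclidean distance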
Scale: mean correlation with KSR1 profile and KSR1 correlation: higher = expression change more like KSR1 knockdown; mean distance from KSR1 profile: higher = expression change less like KSR1 knockdown
This is one part, drawn at random, of about 14,000 reagents tested. 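Higher correlation or smaller distance means closer resemblance to KSR1 loss; control wells, including KSR1 knockdowns, recur on many plates.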 Not all columns of the deposit are shown. The record does not give: the time to read-out.

gene,PubChem SID,mean correlation with KSR1 profile,mean distance from KSR1 profile,"KSR1 correlation, replicate 1"
ADAM22,SID363995196,-0.293,1.66,-0.244
RASSF4,SID364003743,0.486,2.19,-0.00892
TACR2,SID363992354,0.262,3.95,0.334
SYT4,SID364001827,-0.683,1.28,-0.492
RADIL,SID364000747,0.624,0.961,0.405
KNG1,SID363992178,0.146,2.96,0.252
GTF2E1,SID363996414,-0.574,2.83,-0.462
LILRB3,SID363997628,-0.452,1.41,-0.424
ARPC2,SID363996616,-0.392,2.87,-0.299
DNAH7,SID364001224,-0.153,2.41,-0.199
REPS1,SID364003701,0.292,1.45,0.684
SKA3,SID364004644,0.0678,2.74,0.176
OGFOD2,SID364002923,0.587,1.15,0.577
TMIGD3,SID364001778,0.655,1.34,0.688
ENTPD5,SID363992534,0.628,3.57,0.645
OR1J4,SID364005395,-0.574,2.09,-0.627
GUCY1A1,SID363992143,0.36,0.944,0.448
PELI2,SID364002131,0.566,1.35,0.664
GALNT3,SID363995461,0.7,0.832,0.66
SLC44A2,SID364001690,-0.488,3.73,-0.548
PTBP2,SID364002077,-0.0907,1.68,-0.227
SYDE2,SID364005264,0.515,2.11,0.461
ODAD2,SID364000761,-0.458,1.78,-0.567
MAPKAPK5,SID363994743,-0.196,2.46,0.158
RAP1GDS1,SID364002052,0.297,1.31,0.41
NCR1,SID363995782,-0.569,2.79,-0.562
DAG1,SID363995377,0.334,0.802,0.329
GUCA2A,SID364004391,0.233,2.38,0.406
NTF4,SID363997005,-0.0268,1.7,0.12
SLC35C1,SID364001032,0.249,1.3,0.398
NAA80,SID363998126,-0.706,1.78,-0.335
DHODH,SID363992638,0.625,1.64,0.373
ST7L,SID364000491,0.444,3.63,0.337
C1R,SID363992954,0.214,1.9,0.0122
IBSP,SID363995909,0.474,2.7,0.538
NUP98,SID363996297,0.297,2.13,0.44
FOCAD,SID364000533,-0.723,1.96,-0.387
PCDHA3,SID364001233,0.832,0.986,0.709
RGS22,SID363999636,-0.459,3.31,-0.416
SOX13,SID363996576,-0.756,2.38,-0.731
INTS2,SID364001802,-0.344,4.07,-0.375
STAG2,SID363997393,-0.572,2.05,-0.26
CKLF,SID364000035,0.0407,1.16,0.222
RHOXF2,SID364004014,0.842,4.59,0.83
AVP,SID363991813,0.676,1.51,0.454
ID2,SID363993370,-0.688,3.47,-0.738
KLHL26,SID364000970,-0.263,2.23,-0.191
CDK16,SID363997026,0.171,1.68,0.641
NFE2L1,SID363994337,-0.441,3.37,-0.445
ELAC1,SID364001187,-0.182,1.63,-0.172

Limited to “KSR1 correlation, replicate 1” (3 entries from above):
DNAH7 [SID364001224]	-0.199
REPS1 [SID364003701]	0.684
SKA3 [SID364004644]	0.176
